Patent EP0006845A1, “Pharmaceutical composition comprising a 5-aroyl-1-C1-5 alkyl-pyrrole-2-acetic acid compound and acetaminophen or acetylsalicylic acid” (McNeilab, Inc., priority 1978, dated 1980)

Tests used:
[1] = tested on: adjuvant arthritic rats; assay: adjuvant arthritis test, evaluation of paw volume of the non-injected hind paw; type: in vivo, female Wistar, Lewis rats
Text: The efficacy of the novel combination of this invention in inhibiting inflammation and osteogenic degeneration is particularly seen in the adjuvant arthritis test. […] The adjuvant arthritis test, a test in which adjuvant arthritis which results both in inflammation and osteogenic changes is induced by Mycobacterium butvricum and in which the effect of the test compounds on each effect can be Determined, is considered to be .most useful for evaluation of compounds which may be suitable for the treatment of rheumatoid arthritis and other arthritic diseases. The test procedure, in which the effect on inflammation is determined by paw volume changes and the effect on osteogenic changes is determined by microscopic observation, is described by Wong et al, in J. Pharmacol.Exp.Ther. 185, 127-138, 1973, and is employed in the present determination of the potentiation of the antiarthritic properties of 5-aroyl-l-loweralkyl-pyrrole-2-acetic acid derivatives by aspirin or acetaminophen. […]
For evaluation of paw volume, adjuvant arthritic rats with early but significant signs of arthritis in the contralateral paw are selected on Day 11 and randomly assigned to the various groups of 10 animals in each group. […] The paw volumes of the non-injected paws are determined initially on Day 11 and again on Days 15, 18, 22, 25, and 28. […]

[2] = tested on: adjuvant arthritic rats; assay: adjuvant arthritis test, evaluation of bone degeneration (osteogenic changes) in the non-injected hind paw; type: in vivo, female Wistar, Lewis rats; conditions: drug alone, data from several experiments pooled
Text: The efficacy of the novel combination of this invention in inhibiting inflammation and osteogenic degeneration is particularly seen in the adjuvant arthritis test. […] The adjuvant arthritis test, a test in which adjuvant arthritis which results both in inflammation and osteogenic changes is induced by Mycobacterium butvricum and in which the effect of the test compounds on each effect can be Determined, is considered to be .most useful for evaluation of compounds which may be suitable for the treatment of rheumatoid arthritis and other arthritic diseases. The test procedure, in which the effect on inflammation is determined by paw volume changes and the effect on osteogenic changes is determined by microscopic observation, is described by Wong et al, in J. Pharmacol.Exp.Ther. 185, 127-138, 1973, and is employed in the present determination of the potentiation of the antiarthritic properties of 5-aroyl-l-loweralkyl-pyrrole-2-acetic acid derivatives by aspirin or acetaminophen.
Briefly, in this procedure, adjuvant arthritis is induced in female Wistar, Lewis rats (Charles River Breeding Laboratories. Inc., Wiimington, Mass.) weighing 160-190 gm by a single subcutaneous injection of 0.75 mg Mycobacterium butyricum (Difco) into the left hind paw. The non-injected hind paw remains a normal size for the first seven days. […] Using the paw volume determination technique (a technique in which rat paws are dippedin mercury to the hairline and the volume of displacement determined by a modified Van Arman mercury displacement method as described in the aforementioned paper of Wong et al), the time progress curve of volume changes in the non-injected (contralateral) paw is followed. […]
For evaluation of bone degenerations, normal and adjuvant arthritic rats are sacrificed under C02, after the paw volume measurements have been completed on Day 28. […] The distal end of the tibiae, the tarsals, metatarsals, phalanges, and sesamoids are evaluated under a Stereozoom Microscope (a special type of dissecting microscope, product of Bausch and Lomb). […]

Row | SMILES | regression coefficient (slope of the dose-response curve) and its 95 percent C.L. ([1]; decrease in the requirement for tolmetin vs logarithmic dose of acetaminophen) | regression coefficient of the dose response curve for osteogenic change and its 95 percent C.L. [2] | regression coefficient and its 95 percent C.L. ([1]; decrease in the requirement for tolmetin vs logarithmic dose of aspirin)
1 | CC(=O)Nc1ccc(O)cc1 [Acetaminophen, acetaminophen] | 23.4 (13.6-33.3) | 32.3 (31.0-33.6) | 
2 | CC(=O)Oc1ccccc1C(=O)O [Aspirin, acetylsalicylic acid] |  | 33.4 (32.1 - 34.6) | 25.1 (17.8 - 32.5)
3 | Cc1ccc(C(=O)c2ccc(CC(=O)O)n2C)cc1 [Tolmetin, 1-methyl-5-p-toluoyl-pyrrole-2-acetic acid] |  | 28.9 (27.6-30.2) | 
